For at least one compound, name, drawing or mass did not settle the structure.
Assays:
MDA-MB-231 cells [1] = test: Membrane fluidity by EPR (S parameter), MDA-MB-231; type: cell-based, human; conditions: MDA-MB-231, pretreatment with non-cytotoxic dose
Description: Membrane fluidity was determined by a spin-labeling method using EPR, as previously described^27. Briefly, plasma membranes of living cells were labeled by incubating cells for 15 min at 37° C. with 12-doxyl stearic acid (36 μg/mL), a fatty acid with a stable nitroxide radical ring at the C-12 position. Cells were then washed twice with PBS to remove excess 12-doxyl stearic acid and EPR spectra of the labeled samples were acquired at ambient temperature on a Bruker Elexsys EPR spectrometer operating at 3509.25 G center field, 20 mW microwave power, 9.86 GHz microwave frequency, 1.77 G modulation amplitude, and 100 kHz modulation frequency. Fluidity of the spin-labeled membranes was quantified by calculating the S parameter. An increase in the S parameter reflects a decrease in membrane fluidity, and vice versa.

MDA-MB-231 cells [2] = test: Boyden chamber cell migration, MDA-MB-231; type: cell-based, human; conditions: MDA-MB-231, pretreatment with non-cytotoxic dose, cl-CD95L
Description: Boyden chambers contained membranes with a pore size of 8 μm (Millipore, Molsheim, France). After hydration of the membranes, mesenchymal cells (10^5 cells per chamber) or epithelial cells (3×10^5 cells per chamber) were added to the top chamber in low serum (1%)-containing medium. The bottom chamber was filled with low serum (1%)-containing medium in the presence or absence of cl-CD95L (100 ng/mL). Cells were cultured for 24 h at 37° C. To quantify migration, cells were mechanically removed from the top side of the membrane using a cotton-tipped swab, and migrating cells from the reverse side were fixed with methanol and stained with Giemsa. For each experiment, five representative pictures were taken for each insert, then cells were lyzed and absorbance at 560 nm correlated to the amount of Giemsa stain was measured.

For `C[C@H](CCC(=O)O)[C@H]1CC[C@H]2[C@@H]3[C@@H](O)C[C@@H]4C[C@H](O)CC[C@]4(C)[C@H]3CC[C@]12C` [UDCA, ursodeoxycholic acid], the basal membrane fluidity (MDA-MB-231 cells [1]) was “slightly decreased basal membrane fluidity, although not significantly”, the “CD95-mediated increase in plasma membrane fluidity” value (MDA-MB-231 cells [1]; then cl-CD95L) was “abrogated” and the CD95-mediated migration (MDA-MB-231 cells [2]) was “completely abolished”.

From patent US9851358B2, “Methods and pharmaceutical compositions for preventing or reducing metastatic dissemination” (INSERM (Institut National de la Sante et de la Recherche …, priority 2014, dated 2017)
